In paper PMC4817770:
These are yes or no findings as the source states them, for the method shown. In cells and extracts the contact can be indirect. Some results given as binding are weak or reduced against the parent protein; the word gives no strength.

Amino acid sequences for entries named in this document (tags omitted). Residues count along the entry.
UniProt P48678, residues 1-647: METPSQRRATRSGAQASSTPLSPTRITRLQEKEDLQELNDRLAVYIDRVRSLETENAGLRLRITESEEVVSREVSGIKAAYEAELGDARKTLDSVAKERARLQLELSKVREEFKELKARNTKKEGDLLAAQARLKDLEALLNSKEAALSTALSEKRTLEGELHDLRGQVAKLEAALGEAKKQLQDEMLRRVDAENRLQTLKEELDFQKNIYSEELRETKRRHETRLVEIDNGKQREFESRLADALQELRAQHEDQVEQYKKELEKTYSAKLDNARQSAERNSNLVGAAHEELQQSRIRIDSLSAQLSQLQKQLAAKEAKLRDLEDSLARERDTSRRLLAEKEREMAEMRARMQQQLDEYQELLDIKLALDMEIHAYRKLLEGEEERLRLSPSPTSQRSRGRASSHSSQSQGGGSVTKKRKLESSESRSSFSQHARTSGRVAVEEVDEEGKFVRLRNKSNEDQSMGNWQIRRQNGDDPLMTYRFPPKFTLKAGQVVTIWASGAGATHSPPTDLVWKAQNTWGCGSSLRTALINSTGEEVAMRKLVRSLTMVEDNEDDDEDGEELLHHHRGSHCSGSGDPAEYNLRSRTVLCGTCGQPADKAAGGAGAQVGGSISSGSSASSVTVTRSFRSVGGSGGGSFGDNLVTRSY

Target: lamin A/C (mouse (endogenous in immortalized murine dermal fibroblasts)) (UniProt P48678)
Assay: co-IP; endogenous proteins in the soluble lysate of Tmpo WT imMDFs; IP buffer 20 mM Tris-HCl pH 7.5, 150 mM NaCl, 2 mM EGTA, 2 mM MgCl2, 1 mM DTT, 0.5% NP-40, Benzonase; antibodies (lamin A/C N18 or 3A6, LAP2alpha 8C10-1H11, rabbit IgG control) overnight at 4°C; magnetic protein A/G beads; Western blot

B1: lamina-associated polypeptide 2 alpha (protein, UniProt Q61033 1-693)
chain: MPEFLEDPSVLTKDKLKSELVANNVTLPAGEQRKDVYVQLYLQHLTARNRPPLAAGANSKGPPDFSSDEEREPTPVLGSGASVGRGRGAVGRKATKKTDKPRLEDKDDLDVTELSNEELLDQLVRYGVNPGPIVGTTRKLYEKKLLKLREQGTESRSSTPLPTVSSSAENTRQNGSNDSDRYSDNDEGKKKEHKKVKSARDCVPFSELASTPSGAFFQGISFPEISTRPPLGRTELQAAKKVQTTKRDPPRETCTDTALPGKGQTHKLAPGRSLFIPSESSYDRCVEKSSSPSSQREFAARLVSAAASPSLIRETTTTYSKDIVENICRGGKSRAQPLRAEEPGVSDQSVFSSEREVLQESERSQVISPPLAQAIRDYVNSLLVQGGVGSLPGTSDSVPTLDVENICKRLSQSSYQDSESLSPPRKVPRLSEKPARGGDSGSCVAFQNTPGSEHRSSFAKSVVSHSLTTLGVEVSKPPPQHDKIEASEPSFPLHESILKVVEEEWQQIDRQLPSVACRYPVSSIEAARILSVPKVDDEILGFISEATPRAATQASSTESCDKHLDLALCRSYEAAASALQIAAHTAFVAKSLQADISQAAQIINSDPSDAQQALRILNRTYDAASYLCDAAFDEVRMSACAMGSSTMGRRYLWLKDCKISPASKNKLTVAPFKGGTLFGGEVHKVIKKRGNKQ
binding: binds
